The values below come from publication PMC10351895.

The target of test [1] is T1, 3A-MTREX (endogenous gene tagged) (mouse (endogenous in mESCs)) (UniProt Q9CZU3).
T1 sequence (chain, biotin on the AviTag (cells express bacterial BirA ligase)): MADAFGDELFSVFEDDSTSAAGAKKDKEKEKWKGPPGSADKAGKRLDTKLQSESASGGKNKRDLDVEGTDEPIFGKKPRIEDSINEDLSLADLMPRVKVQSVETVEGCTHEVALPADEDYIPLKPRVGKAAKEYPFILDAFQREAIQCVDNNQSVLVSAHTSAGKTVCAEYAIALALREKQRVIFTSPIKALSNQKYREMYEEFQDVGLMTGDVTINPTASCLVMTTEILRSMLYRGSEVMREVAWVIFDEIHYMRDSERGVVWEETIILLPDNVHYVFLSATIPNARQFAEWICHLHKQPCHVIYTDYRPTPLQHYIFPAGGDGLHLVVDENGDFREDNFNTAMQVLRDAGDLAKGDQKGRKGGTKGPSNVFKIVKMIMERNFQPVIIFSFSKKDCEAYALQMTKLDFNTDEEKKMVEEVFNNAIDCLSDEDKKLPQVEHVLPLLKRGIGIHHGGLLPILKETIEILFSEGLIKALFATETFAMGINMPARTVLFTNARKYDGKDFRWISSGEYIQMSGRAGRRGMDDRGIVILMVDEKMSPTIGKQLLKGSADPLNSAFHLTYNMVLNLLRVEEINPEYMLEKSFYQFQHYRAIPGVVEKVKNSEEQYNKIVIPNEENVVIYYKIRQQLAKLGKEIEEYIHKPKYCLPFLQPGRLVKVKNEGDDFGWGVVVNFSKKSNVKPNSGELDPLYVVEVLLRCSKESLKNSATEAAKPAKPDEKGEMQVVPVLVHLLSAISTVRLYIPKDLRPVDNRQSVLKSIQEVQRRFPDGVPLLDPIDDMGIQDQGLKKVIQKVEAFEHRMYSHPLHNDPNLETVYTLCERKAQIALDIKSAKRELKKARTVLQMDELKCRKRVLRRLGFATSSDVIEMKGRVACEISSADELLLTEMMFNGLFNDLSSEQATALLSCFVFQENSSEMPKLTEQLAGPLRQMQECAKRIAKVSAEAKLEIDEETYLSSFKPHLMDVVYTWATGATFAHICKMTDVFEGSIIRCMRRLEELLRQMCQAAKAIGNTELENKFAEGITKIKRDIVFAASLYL
In words: co-IP; streptavidin beads capture the endogenous biotinylated 3A-tagged protein from lysate of mESCs transiently transfected with NRDE2 constructs; co-IP buffer 20 mM Tris-HCl pH 7.5, 150 mM NaCl, 1 mM EDTA, 1% Triton X-100; without RNase A; western blot.

Test [2] deals with T1, 3A-MTREX (endogenous gene tagged) (mouse (endogenous in mESCs)). In words: co-IP; as a3, but lysis in co-IP buffer supplemented with RNase A (1 µL of 10 mg/mL in 900 µL).

These are yes or no findings as the source states them, for the method shown. Binding seen in cells or lysates may run through a third protein. Some binding calls cover weakened binding; strength is not graded here. Where a sequence is shown, tags or fusion partners need not be part of it.

B1: V5-NRDE2 fused to 2A-Puro (protein, UniProt Q80XC6 1-1172)
chain: MALFPAFADVSEASGDGAFRKELDWLSNPSFRVGNLTSLSRQTEEVTALASEGSPPPRYSFIRSPLKSELSGESNTSEKLAQTSRKKKKEKKKRRKHQHHRKTKRRHEQLSSSGSESDTEAGKDRASRSIRDDQKEAEKPCQGSNAAAAVAAAAGHRSIWLEDIHDLTDVFRTDKKPDPANWEYKSLYRGDIARYKRKGDSCLGINPKKQCISWEGASAAKKHSHRHLERYFTKKNVGLMRTEGIAVCSNPEPASSEPVTFIPVKDSAEAATPVTSWLNPLGIYDQSTTQWLQGQGPAEQESKQPDSQQDRENAALKARVEEFNRRVRENPWDTQLWMAFVAFQDEVMRSPGIYALGEGEQEKHRKSLKLLLEKKLAVLERAIESNPGSVELKLAKLQLCSEFWEPSALAKEWQKLLFLHPNNTSLWQRYLSFCQSQFGTFSVSKLHSLYGKCLSTLSAVKDGSMLSHPVLPGTEEAMFGLFLQQCHFLRQAGHSEKVISLFQAMVDFTFFKPDSVKELPTKVQVEFFEPFWDSGEPRVGEKGARGWRAWMHQQERGGWVLITPDEDDEEPEEEDQEIKDKTLPRWQIWLAVERSRDQRHWRPWRPDKTKKQTEEDCEDPERQVLFDDIGQSLIRLSSPDLQFQLIQAFLQFLGVPSGFLPPASCLYLAMDESSIFESELYDEKPLTYFNPSFSGISCVGSMEQLGRPRWTKGHNREGEEFVRNVFHLVLPLLAGKQKSQLSLSWLRYEIAKVIWCLHTKKKRLKSQGKSCKKLAKNLLKEPENRNNFCLWKQYAHLEWLLGNTEDARKVFDTALSMAGSSELKDRELCELSLLYAELEMELSPDSRGATTGRAVHILTRLTESSPYGPYTGQVSSTQVLKARKAYELALQDCLGQSCASSPAPAEALDCLGSLVRCFMLFQYLTVGIDAAVQIYGRVFAKLKGSARLEDPGPEDSTSSQSLTNVLEAVSMMHTSLLRFHMNVCVYPLAPLRETLSDALKLYPGNQVLWRAYVQIQNKSHSANKTRRFFDTVTRSAKHLEPWLFAIEAEKLRKKLVESVQRVGGREVHATIPETGLTHRIRALFENAIRSDKGNQCPLLWRMYLNFLVSLGNKERSKGVFYKALQSCPWAKVLYMDAMEYFPDELQEILDVMTEKELRVRLPLEELELLLED
In the case of B1, the binding result in test [1] and in test [2] was “binds” each time.
